Measured values published in doi:10.1101/614636.
These are yes or no findings as the source states them, for the method shown. Some binding calls cover weakened binding; strength is not graded here.

Target: T1, BREAKING OF … IN THE STOMATAL LINEAGE (BASL), full length, yeast two-hybrid bait (Arabidopsis thaliana) (UniProt Q5BPF3)
T1 sequence: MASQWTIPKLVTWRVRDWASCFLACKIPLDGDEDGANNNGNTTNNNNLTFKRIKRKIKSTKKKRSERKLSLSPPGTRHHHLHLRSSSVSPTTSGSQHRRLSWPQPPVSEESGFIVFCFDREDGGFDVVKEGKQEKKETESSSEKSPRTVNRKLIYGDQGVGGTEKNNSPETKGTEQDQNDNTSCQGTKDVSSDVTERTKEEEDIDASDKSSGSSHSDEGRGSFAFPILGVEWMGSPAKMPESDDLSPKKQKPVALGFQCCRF
Experiment: two-hybrid

B1: BREVIS RADIX (BRX), pairwise yeast two-hybrid construct (protein, UniProt Q17TI5 1-344)
chain: MFSCIACTKADGGEEVEHGARGGTTPNTKEAVKSLTIQIKDMALKFSGAYKQCKPCTGSSSSPLKKGHRSFPDYDNASEGVPYPFMGGSAGSTPAWDFTNSSHHPAGRLESKFTSIYGNDRESISAQSCDVVLDDDGPKEWMAQVEPGVHITFASLPTGGNDLKRIRFSREMFDKWQAQRWWGENYDKIVELYNVQRFNRQALQTPARSDDQSQRDSTYSKMDSARESKDWTPRHNFRPPGSVPHHFYGGSSNYGPGSYHGGPPMDAARTTTSSRDDPPSMSNASEMQAEWIEEDEPGVYITIRQLSDGTRELRRVRFSRERFGEVHAKTWWEQNRERIQTQYL
B1 was tested, and the binding was “binds”.
